In all, about 340,000 compounds went through this assay and about 170 (0.05%) were called active. Inconclusive results, whose numbers are uncertain, are shown with a selection of clear calls. Calls come from the whole dose curve; as a rule, active = well fitted inhibition curve with a large enough effect in the signal ratio, with a control signal flat (not every such curve was filed as active); inconclusive = small, poorly fitted or top-dose-only effect, or effect the other way, or a change in a side signal; inactive = flat fitted curve, though single readings scatter; the % refers to the signal ratio. A potency beside an inconclusive call is a rough fit, not a confirmed value.
assay: qHTS Assay to Find Inhibitors of Chronic Active B-Cell Receptor Signaling; settings: ABC-DLBCL IkBa-CBG/CBR reporter, luminescence ratio (green luciferase fused to IkBa over red control in TMD8 lymphoma cells), 4 h; activity change, negative = inhibition: at 46.1 µM (top of the series);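 for activity change, negative = inhibition: plate controls were basal doxycycline-induced cells for no effect and cells given 10 µM MG132 for full effect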
Procedure, shortened: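 Concentration-response series (up to 46 uM) were applied to TMD8 dual-reporter cells for 4 h at 37C with doxycycline. Green/red ratio, after filter-overlap correction, defined %Activity; red signal alone was normalised to basal cells and zero luminescence.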
Potency is the fitted concentration of half-maximal effect.

Row | Structure (SMILES) | activity change, negative = inhibition | Potency
1 | C=CCOc1ccccc1CNCCCN1CCOCC1 | inactive | 
2 | CCOC(=O)c1ccc(Nc2cc(C)nc(-c3ccccc3)n2)cc1 |  | inconclusive: 3.98 µM [falling, partial curve]
3 | N#Cc1ccc(Oc2nc(Nc3ccc(F)cc3)nc(N3CCCC3)n2)cc1 |  | inconclusive: 3.26 µM [falling, partial curve, poor fit]
4 | Oc1ccc(Br)cc1-c1ccn[nH]1 | inconclusive: 0.117% | 
5 | O=C(Nc1cccc(S(=O)(=O)N2CCCCC2)c1)C1CC(=O)N(c2ccc3c(c2)OCCO3)C1 (configuration not stated) | inconclusive: -6.08% | 
6 | COc1ccc(OCCOC(=O)c2ccc(-n3cnnn3)cc2)cc1 | inconclusive: 0.0284% | 
7 | COc1ccc(OC)c(NC(=O)CSc2nnc(CNC(=O)COc3ccc(Cl)cc3)o2)c1 | inconclusive: -0.0155% | 
8 | Cc1cc2nc(N3C(=O)CNC3=S)sc2cc1C |  | inconclusive: 25.1 µM [falling, partial curve]
9 | COc1cc2cc(CN(Cc3cccnc3)C(=O)NCc3ccccc3)c(=O)[nH]c2cc1OC | inconclusive: -5.26% | 
10 | Cc1c(C(=O)Nc2cccc(S(=O)(=O)N3CCOCC3)c2)oc2ccc(Br)cc12 | inconclusive: 2.94% | 
11 | Cc1ccc(NC(=O)C(=O)NCCN2CCN(S(C)(=O)=O)CC2)cc1C | inactive | 
12 | O=c1cccccc1NN=C1CCCCCC1 | inconclusive: -18.3% | 
13 | O=[N+]([O-])c1ccc2c(c1)nc(CO)n2Cc1ccccc1 | inactive | 
14 | CCN(CC)C(=O)c1[nH]cnc1C(=O)Nc1cccc(Cl)c1 | inconclusive: 8.9% | 
15 | C=CCOc1ccc(NC(=O)C(=O)NCCCn2ccnc2)cc1 | inactive | 
16 | CC(=O)Nc1ccc(S(=O)(=O)Nc2cc(C)cn(Cc3ccccc3)c2=O)cc1 | inactive | 
17 | COc1ccc(OC)c(NC(=O)CSC2=Nc3ccccc3C3=NC(CC(=O)NCCc4ccccc4)C(=O)N23)c1 (configuration not stated) |  | inconclusive: 35.5 µM [falling, single point]
18 | Cc1ccc(-c2ccc([C@H]3[C@H]4C=CC[C@@H](C)[C@@H]4C(=O)N3Cc3ccccc3)c(F)c2)cc1 | inactive | 
19 | Cc1nc(C)c(-c2ccc(SCC(=O)Nc3cccc(Cl)c3C)nn2)s1 | inconclusive: -23.8% | 
20 | Cc1c(C(=O)OCC(=O)Nc2ccccc2OC(F)F)cccc1[N+](=O)[O-] | inactive | 
21 | O=C1CCCC(=O)N1c1ccc(O)cc1 | inconclusive: -1.38% | 

2 of the compounds above, as labelled records.
N#Cc1ccc(Oc2nc(Nc3ccc(F)cc3)nc(N3CCCC3)n2)cc1
  Potency: inconclusive: 3.26 µM [falling, partial curve, poor fit]
Oc1ccc(Br)cc1-c1ccn[nH]1
  activity change, negative = inhibition: inconclusive: 0.117%

Next part

Row | Structure (SMILES) | activity change, negative = inhibition | Potency
22 | O=[N+]([O-])c1cccc(-c2nnc(C3CC3)o2)c1 | inconclusive: 9.8% | 
23 | CCC(=O)NC(=S)N1CCN(c2ccc([N+](=O)[O-])cc2Cl)CC1 |  | inconclusive: 0.0891 µM [falling, full curve, poor fit]
24 | Cc1ccc2nc(-c3cccc(NC(=O)c4ccco4)c3)[nH]c2c1 | inconclusive: -8.99% | 
25 | Cc1ccc2[nH]c(=O)c(CN(CCCN3CCOCC3)C(=O)Nc3ccc(Cl)cc3)cc2c1 | inconclusive: 14.6% | 
26 | Clc1ccc(CSc2nnc(-c3cccnc3)n2Cc2ccco2)c(Cl)c1 | inconclusive: -0.225% | 
27 | O=C(OCc1nc2ccccc2[nH]1)C12CC3CC(CC(C3)C1)C2 | inactive | 
28 | Cc1cc(C)c(C)c(OCC(=O)O/N=C(\N)c2ccncc2)c1 | inconclusive: 10.7% | 
29 | CC(NC(=O)Nc1ccc(F)cc1F)c1ccncc1 (configuration not stated) | inactive | 
30 | CN(C)S(=O)(=O)Oc1ccc(C(=O)Nc2cccc(Cl)c2)cc1 | inconclusive: -9.44% | 
31 | Cc1ccc(OCC(=O)Nc2ccc(N3CCN(C(=O)c4ccco4)CC3)cc2)c(C)c1 | inconclusive: -25.8% | 
32 | O=C(Nc1cc(F)cc(F)c1)c1ccc(NCCCN2CCCCCC2)c([N+](=O)[O-])c1 | inconclusive: -14.3% | 
33 | Cc1ccc(C(=O)N/N=C/c2c(O)ccc3ccccc23)cn1 | inconclusive: -2.09% | 
34 | COc1cc(NC(=O)c2c(F)cccc2F)nc(OC)n1 | inconclusive: -0.278% | 
35 | CCOc1ccc(NCc2nnc(SCc3ccccc3Cl)n2-c2ccccc2)cc1 | inconclusive: 13.2% | 
36 | CC1=C(C(=O)Nc2ccc(C)cc2C)C(c2cccc(Cl)c2)n2nc(C(=O)OC(C)C)nc2N1 (configuration not stated) | inconclusive: -5.31% | 
37 | Nc1ccc(Oc2ncccn2)cc1 |  | inconclusive: 22.4 µM [falling, partial curve, poor fit]
38 | CC(=O)N1CCOc2cc(S(=O)(=O)NCc3ccccc3Cl)c(Cl)cc21 | inactive | 
39 | CCOc1ccccc1N1CCN(C2=C(NS(=O)(=O)c3cccs3)C(=O)c3ccccc3C2=O)CC1 | inconclusive: 28.1% | 
40 | O=c1[nH]c(SCC2CCCCO2)nc2ccccc12 (configuration not stated) |  | inconclusive: 35.5 µM [falling, single point]
41 | CC(C)CC(=O)NS(=O)(=O)c1ccc(NC(=O)c2ccco2)cc1 | inconclusive: -27.8% | 
42 | C#CCNC(=O)C1=C[C@@H](c2ccc(C(F)(F)F)cc2)C[C@@H](OCCCCO)O1 | inconclusive: 13.2% | 
